# These are yes or no findings as the source states them, for the method shown. Binding seen in cells or lysates may run through a third protein. A yes stands for co-enrichment or nearness to the bait. Other partners may have been found. Where a sequence is shown, tags or fusion partners need not be part of it.
# T1: Dsn1-6His-3FLAG (S. cerevisiae) (UniProt P40568)
# T1 sequence: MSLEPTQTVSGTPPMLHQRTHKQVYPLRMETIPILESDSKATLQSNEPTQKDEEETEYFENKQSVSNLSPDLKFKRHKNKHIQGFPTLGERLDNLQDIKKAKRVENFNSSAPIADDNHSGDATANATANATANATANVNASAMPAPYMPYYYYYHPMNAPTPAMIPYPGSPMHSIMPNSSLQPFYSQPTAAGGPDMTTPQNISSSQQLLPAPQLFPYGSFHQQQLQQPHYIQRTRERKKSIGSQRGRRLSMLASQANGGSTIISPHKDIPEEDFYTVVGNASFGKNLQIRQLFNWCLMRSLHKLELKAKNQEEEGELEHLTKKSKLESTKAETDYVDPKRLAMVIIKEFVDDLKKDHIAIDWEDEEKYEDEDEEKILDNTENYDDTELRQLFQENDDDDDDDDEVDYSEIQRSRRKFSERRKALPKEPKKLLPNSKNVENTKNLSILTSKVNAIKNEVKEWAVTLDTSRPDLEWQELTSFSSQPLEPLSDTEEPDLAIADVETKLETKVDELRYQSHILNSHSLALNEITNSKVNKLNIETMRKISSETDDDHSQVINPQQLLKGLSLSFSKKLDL
# Target: T1, Dsn1-6His-3FLAG (S. cerevisiae)
# Test: affinity purification with mass spectrometry; anti-FLAG antibody on Protein G Dynabeads, Dsn1-6His-3FLAG from lysates of SK1 cells at mitotic metaphase, meiotic prophase, metaphase I and metaphase II (SynSAC, 250 uM ABA); BH0.15 buffer (150 mM KCl, 25 mM HEPES-KOH pH 8.0, 2 mM MgCl2, 0.1% NP-40), 3 hr at 4 C; DIA-MS of eluates, 95% phospho-enriched; no tag control
row,Binder,binding
1,"Bik1 (protein, UniProt P11709 1-440) MDRYQRKIGCFIQIPNLGRGQLKYVGPVDTKAGMFAGVDLLANIGKNDGSFMGKKYFQTEYPQSGLFIQLQKVASLIEKASISQTSRRTTMEPLSIPKNRSIVRLTNQFSPMDDPKSPTPMRSFRITSRHSGNQQSMDQEASDHHQQQEFGYDNREDRMEVDSILSSDRKANHNTTSDWKPDNGHMNDLNSSEVTIELREAQLTIEKLQRKQLHYKRLLDDQRMVLEEVQPTFDRYEATIQEREKEIDHLKQQLELERRQQAKQKQFFDAENEQLLAVVSQLHEEIKENEERNLSHNQPTGANEDVELLKKQLEQLRNIEDQFELHKTKWAKEREQLKMHNDSLSKEYQNLSKELFLTKPQDSSSEEVASLTKKLEEANEKIKQLEQAQAQTAVESLPIFDPPAPVDTTAGRQQWCEHCDTMGHNTAECPHHNPDNQQFF",binds
2,"Bir1 (protein, UniProt P47134 1-954) MDGQIDKMEKRYSMTKLENRLRTFQDGVALEKKKLKWSFKVIPYQAMAKLGFYFDPVIDPKTSKLKKDSVRCCYCHRQTYNVRDCRSKRKDVLETLSNIMRQHLTVTDNKQVCLLIYLRNKLLTDYSFHMGVSDWKNDKYFSNPDDENVINLRKFTFQDNWPHSGSQNEHPLGIEKMVNAGLMRYDSSIEGLGDPSMDKTLMNDTCYCIYCKQLLQGWSINDDPMSRHYKVSQNGNCYFFQTRNRFERIKNDNDSITKNCEVSPTLGENGKREVINTKTASQRQCPLFESPPSSTGPQLDDYNEKTDISVIQHNISVLDGAQGENVKRNSVEEKEQINMENGSTTLEEGNINRDVLADKKEVISTPTAKEIKRPNVQLTQSSSPIKKKRKFKRISPRKIFDEEDSEHSLNNNSANGDNKDKDLVIDFTSHIIKNRDVGRKNAILDDSTDEFSFSNQGHNTFDIPIPTSSHLLKGIDSDNDNVIREDDTGINTDTKGASSKHEKFSVNSEEDLNFSEVKLTGRDSSTNILIRTQIVDQNLGDIDRDKVPNGGSPEVPKTHELIRDNSEKREAQNGEFRHQKDSTVRQSPDILHSNKSGDNSSNITAIPKEEQRRGNSKTSSIPADIHPKPRKNLQEPRSLSISGKVVPTERKLDNINIDLNFSASDFSPSSQSEQSSKSSSVISTPVASPKINLTRSLHAVKELSGLKKETDDGKYFTNKQETIKILEDVSVKNETPNNEMLLFETGTPIASQENKSRKLFDEEFSGKELDIPIDSSTVEIKKVIKPEFEPVPSVARNLVSGTSSYPRNSRLEEQRKETSTSLADNSKKGSSFNEGNNEKEPNAAEWFKIDENRHLVKNYFHDLLKYINNNDATLANDKDGDLAFLIKQMPAEELDMTFNNWVNLKVQSIKREFIDDCDKKLDILRRDYYTATNFIETLEDDNQLIDIAKKMGIL",binds

# Continued, values first:
row,binding,Binder
1,binds,"Cin8 (protein, UniProt P27895 1-1000) MPAENQNTGQDRSSNSISKNGNSQVGCHTVPNEELNITVAVRCRGRNEREISMKSSVVVNVPDITGSKEISINTTGDTGITAQMNAKRYTVDKVFGPGASQDLIFDEVAGPLFQDFIKGYNCTVLVYGMTSTGKTYTMTGDEKLYNGELSDAAGIIPRVLLKLFDTLELQQNDYVVKCSFIELYNEELKDLLDSNSNGSSNTGFDGQFMKKLRIFDSSTANNTTSNSASSSRSNSRNSSPRSLNDLTPKAALLRKRLRTKSLPNTIKQQYQQQQAVNSRNNSSSNSGSTTNNASSNTNTNNGQRSSMAPNDQTNGIYIQNLQEFHITNAMEGLNLLQKGLKHRQVASTKMNDFSSRSHTIFTITLYKKHQDELFRISKMNLVDLAGSENINRSGALNQRAKEAGSINQSLLTLGRVINALVDKSGHIPFRESKLTRLLQDSLGGNTKTALIATISPAKVTSEETCSTLEYASKAKNIKNKPQLGSFIMKDILVKNITMELAKIKSDLLSTKSKEGIYMSQDHYKNLNSDLESYKNEVQECKREIESLTSKNALLVKDKLKSKETIQSQNCQIESLKTTIDHLRAQLDKQHKTEIEISDFNNKLQKLTEVMQMALHDYKKRELDLNQKFEMHITKEIKKLKSTLFLQLNTMQQESILQETNIQPNLDMIKNEVLTLMRTMQEKAELMYKDCVKKILNESPKFFNVVIEKIDIIRVDFQKFYKNIAENLSDISEENNNMKQYLKNHFFKNNHQELLNRHVDSTYENIEKRTNEFVENFKKVLNDHLDENKKLIMQNLTTATSAVIDQEMDLFEPKRVKWENSFDLINDCDSMNNEFYNSMAATLSQIKSTVDTSSNSMNESISVMKGQVEESENAISLLKNNTKFNDQFEQLINKHNMLKDNIKNSITSTHSHITNVDDIYNTIENIMKNYGNKENATKDEMIENILKEIPNLSKKMPLRLSNINSNSVQSVISPKKHAIEDENKSSENVDNEGSRKMLKIE"
2,binds,"Mps1 (enzyme, UniProt P54199 1-764) MSTNSFHDYVDLKSRTNTRQFSDDEEFTTPPKLSNFGSALLSHTEKTSASEILSSHNNDKIANRLEEMDRSSSRSHPPPSMGNLTSGHTSTSSHSTLFGRYLRNNHQTSMTTMNTSDIEINVGNSLDKSFERIRNLRQNMKEDITAKYAERRSKRFLISNRTTKLGPAKRAMTLTNIFDEDVPNSPNQPINARETVELPLEDSHQTNFKETKRNTDYDSIDFGDLNPIQYIKKHNLPTSDLPLISQIYFDKQREENRQAALRKHSSRELLYKSRSSSSSLSSNNLLANKDNSITSNNGSQPRRKVSTGSSSSKSSIEIRRALKENIDTSNNSNFNSPIHKIYKGISRNKDSDSEKREVLRNISINANHADNLLQQENKRLKRSLDDAITNENINSKNLEVFYHRPAPKPPVTKKVEIVEPAKSASLSNNRNIITVNDSQYEKIELLGRGGSSRVYKVKGSGNRVYALKRVSFDAFDDSSIDGFKGEIELLEKLKDQKRVIQLLDYEMGDGLLYLIMECGDHDLSQILNQRSGMPLDFNFVRFYTKEMLLCIKVVHDAGIVHSDLKPANFVLVKGILKIIDFGIANAVPEHTVNIYRETQIGTPNYMAPEALVAMNYTQNSENQHEGNKWKVGRPSDMWSCGCIIYQMIYGKPPYGSFQGQNRLLAIMNPDVKIPFPEHTSNNEKIPKSAIELMKACLYRNPDKRWTVDKVLSSTFLQPFMISGSIMEDLIRNAVRYGSEKPHISQDDLNDVVDTVLRKFADYKI"
3,binds,"Lrs4 (protein, UniProt Q04087 1-347) MTTLLQLLSNYYKAKLDSERIYNEYVQSQYEFASLDKLNNNKGDPKKVVDETLFLQRQIAQLNKQLQLSFQENEKLLSVQKNQKALYQSKLSSKDAFIDDLKLKLKVEQISVDKHNKERTPSTGRDEQQRNSKAAHTSKPTIHLLSPIVNRDKPNNQTNDRGGNDPDSPTSQRRSRGLRSLLSSGKNTIFDSISKNLDDEINENAHIRNDTTSSKIAGKSPSRLSALQKSPELRKERNNMILKEHILRSKDDQNITSSRKLDNIELSSIGDSTAMTSRSSTVNANDILGNEENDGITKLKRVNKLTSSPVKRDCSTNKKRKLTKQRIATLPNSDEELSNNLNVDEFV"
4,binds,"Sli15 (protein, UniProt P38283 1-698) MDWAIKAARKKTQRKPGSTRSIIETLDDLNNLTTDAHSEINQRLYESSEWLRNNVYMNTLKYEDKKMEESLISPENTHNKMDVEFPKMKGEYELSNSQNDAAKDVTKTPRNGLHNDKSITPKSLRRKEVTEGMNRFSIHDTNKSPVEPLNSVKVDANESEKSSPWSPYKVEKVLRESSKTSESPINTKRFDNQTWAAKEEMENEPILQALKKAESVKVKPPPNSGIARSQRRSNMFVPLPNKDPLIIQHIPPTKSSGSIPKVRTVKESPIAFKKKSTINSPAIRAVENSDTAGSTKASSVFDRLSSIPTKSFENKISRGNVGHKYSSSSIDLTGSPMKKVSQKFKSINSTDTDMQEALRDIFSVKNKITKNNSPKGKNSRKSSIPRFDKTSLKLTTHKKLAIIAEQKKKSKHSSDVHKTGSRPHSISPTKISVDSSSPSKEVKNYYQSPVRGYLRPTKASISPNKNKNLTTSQTPHRLKIKEKTLRKLSPNIADISKPESRKSKNYRLTNLQLLPPAEAERDDLKKKFDKRLSGIMRSQQEHHRRKQEKQKRMSHLEQDLKKQTSFSNDYKDIRLKESLAPFDNHVRDTINKNTAFSTDNILATINTVDHREIIGNVTPKIASVNDSLPEINTDSEDEASVTLAAWAKSPYLQEQLIRQQDINPQTIFGPIPPLHTDEIFPNPRLNRLKPRQIVPKRS"

# From article PMC13065327
